{"sequences": {"note": "Chains of the proteins cited; added tags and fusions are not shown. Lines headed by an entry give the natural chain unless they say otherwise; changes in a name come on top.", "UniProt Q9UNA4": "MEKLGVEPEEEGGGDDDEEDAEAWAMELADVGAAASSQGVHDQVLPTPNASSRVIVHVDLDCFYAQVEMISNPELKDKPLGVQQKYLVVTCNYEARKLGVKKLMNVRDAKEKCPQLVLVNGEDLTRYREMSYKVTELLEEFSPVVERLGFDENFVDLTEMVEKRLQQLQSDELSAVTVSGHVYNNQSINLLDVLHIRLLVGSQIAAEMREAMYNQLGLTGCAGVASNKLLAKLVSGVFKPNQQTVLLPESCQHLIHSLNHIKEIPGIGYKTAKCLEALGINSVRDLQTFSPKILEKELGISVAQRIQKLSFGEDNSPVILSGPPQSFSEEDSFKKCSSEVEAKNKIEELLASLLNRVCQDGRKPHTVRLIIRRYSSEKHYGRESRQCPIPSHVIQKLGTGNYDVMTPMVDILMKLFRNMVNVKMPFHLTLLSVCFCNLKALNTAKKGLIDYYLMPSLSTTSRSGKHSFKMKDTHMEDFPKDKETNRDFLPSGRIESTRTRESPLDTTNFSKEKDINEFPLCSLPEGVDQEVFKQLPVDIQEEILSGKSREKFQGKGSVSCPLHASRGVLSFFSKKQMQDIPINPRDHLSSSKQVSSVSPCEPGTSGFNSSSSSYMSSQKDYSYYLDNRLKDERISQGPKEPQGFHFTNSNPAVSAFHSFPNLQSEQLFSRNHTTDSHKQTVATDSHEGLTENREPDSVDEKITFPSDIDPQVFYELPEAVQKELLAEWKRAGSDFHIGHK"}, "source": "PubChem BioAssay AID588590", "about": "(National Center for Advancing Translational Sciences (NCATS), 2011)", "note": "Among all 390,000 compounds or so, about 4,000 (1%) were called active. Inconclusive results, whose numbers are uncertain, are shown with a selection of clear calls. Calls come from the whole dose curve; as a rule, active = well fitted inhibition curve with a large enough effect; inconclusive = small, poorly fitted or top-dose-only effect, or another doubt; inactive = no such curve, though single readings can be large or run the other way. A potency beside an inconclusive call is a rough fit, not a confirmed value. Potency is the fitted concentration of half-maximal effect.", "data": [{"molecular_target": "DNA polymerase iota (Homo sapiens) (UniProt Q9UNA4)", "assay": "qHTS for Inhibitors of Polymerase Iota", "settings": "Pol iota fluorescent replication assay, 10 min; series mostly up to 115 µM; activity, negative = inhibition: at the top concentration", "in_short": "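Fluorescent replication assay read twice, at 0 min and 10 min after adding 50 nM (final) substrate. Enzyme (10 nM) and compounds were first incubated 15 min at room temperature; enzyme-free buffer wells were negative controls.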", "values": [{"smiles": "Cc1ccc(/C=C/C(=O)N2CC(C)CC(C)C2)o1", "note": "(centres undefined)", "Potency": "inconclusive: 20 µM [inhibitor, full curve, poor fit]"}, {"smiles": "CC(=O)N(C)c1ccc(NC(=O)Cc2cccs2)cc1", "Potency": "inconclusive: 31.6 µM [inhibitor, partial curve, poor fit]"}, {"smiles": "CCc1nnc(NC(=O)c2nc(SCc3ccc(F)cc3)ncc2Cl)s1", "Potency": "inconclusive: 89.1 µM [inhibitor, partial curve, poor fit]"}, {"smiles": "COc1ccc(CNS(=O)(=O)c2ccc(S(=O)(=O)NC3CC3)cc2)cc1", "Potency": "inconclusive: 100 µM [inhibitor, partial curve, poor fit]"}, {"smiles": "CC(=O)Nc1ccc(/C=C/C(=O)c2ccc(-n3nncc3-c3ccccc3)cc2)cc1", "Potency": "inconclusive: 14.1 µM [inhibitor, full curve, poor fit]"}, {"smiles": "Cc1cccc(S(=O)(=O)c2cn(Cc3ccc(F)cc3)c3cc(N4CCOCC4)c(F)cc3c2=O)c1", "activity, negative = inhibition": "inactive: 19.9%"}, {"smiles": "Cc1ccc[n+](CC(=O)c2ccc(NC(=O)c3ccccc3)cc2)c1", "Potency": "inconclusive: 2.24 µM [inhibitor, full curve]"}, {"smiles": "O=C(c1ccc2c(c1)N(Cc1ccc(F)cc1)CCS2)N1CCN(c2ccccc2)CC1", "activity, negative = inhibition": "inactive: -14.2%"}, {"smiles": "Cc1ccc(-n2c3c(cc(C(=O)NC4CCSC4=O)c2=O)C(=O)CC(C)(C)C3)cc1", "note": "(centres undefined)", "activity, negative = inhibition": "inactive: 42.5%"}, {"smiles": "COc1ccc(-n2c(C)nc3sc4c(c3c2=O)CCC4)cc1", "Potency": "inconclusive: 14.1 µM [inhibitor, full curve, poor fit]"}, {"smiles": "N#CC(=C(O)COC(=O)Cc1c[nH]c2ccccc12)c1nc2ccccc2[nH]1", "activity, negative = inhibition": "inactive: 58.7%"}, {"smiles": "Cc1ccc(S(=O)(=O)Nc2cccc(S(=O)(=O)Nc3ccccc3C(=O)O)c2)c(C)c1", "Potency": "inconclusive: 25.1 µM [inhibitor, partial curve, poor fit]"}, {"smiles": "CCN(Cc1ccccc1)S(=O)(=O)c1cc2c3c(c1)CCN3C(=O)CC2", "Potency": "inconclusive: 89.1 µM [inhibitor, partial curve, poor fit]"}, {"smiles": "CC1(C)Cc2cccc(OCC(=O)OCC(=O)c3ccccc3)c2O1", "activity, negative = inhibition": "inactive: -7.25%"}, {"smiles": "CC(C)C(=O)O/N=C(\\N)c1ccccn1", "Potency": "inconclusive: 89.1 µM [inhibitor, single point]"}, {"smiles": "CCOc1cc(/C=N/Nc2nc(N3CCCC3)nc(N3CCCC3)n2)ccc1O", "Potency": "inconclusive: 89.1 µM [inhibitor, partial curve, poor fit]"}, {"smiles": "COc1ccc2nc3oc(C(=O)Nc4cccc(C(F)(F)F)c4)cc3cc2c1", "activity, negative = inhibition": "inactive: 2.53%"}, {"smiles": "Cc1nc(SCc2nc3ccc([N+](=O)[O-])cc3[nH]2)c2oc3ccccc3c2n1", "Potency": "inconclusive: 25.1 µM [inhibitor, partial curve, poor fit]"}, {"smiles": "CCOc1ccc(S(=O)(=O)N(CC)CC)cc1N", "Potency": "inconclusive: 28.2 µM [inhibitor, full curve]"}, {"smiles": "C/C(=N\\NC(=O)c1cc(-c2ccc(C)s2)[nH]n1)c1ccco1", "Potency": "inconclusive: 10 µM [inhibitor, partial curve, poor fit]"}, {"smiles": "COc1ccc(C(=O)NC(Oc2ccccc2)C(Cl)(Cl)Cl)cc1", "note": "(centres undefined)", "Potency": "inconclusive: 100 µM [inhibitor, single point]"}, {"smiles": "Cc1c(C2=CCN(S(=O)(=O)c3ccc(Br)cc3)CC2)c2ccccc2n1CC(=O)N1CCCC1", "activity, negative = inhibition": "inactive: 22.1%"}, {"smiles": "Cc1ccc(-c2[nH]nc(N)c2N=Nc2ccccc2C)cc1", "Potency": "inconclusive: 39.8 µM [inhibitor, single point]"}, {"smiles": "COC(=O)N/N=C/c1cn(Cc2c(Cl)cccc2Cl)c2ccccc12", "Potency": "inconclusive: 79.4 µM [inhibitor, partial curve, poor fit]"}, {"smiles": "COc1ccc(NC(=O)CSc2c3c(nc4ccc(Cl)cc24)CCCC3)cc1Cl", "activity, negative = inhibition": "inactive: 0.802%"}, {"smiles": "COc1ccc(-c2ccc(CCC(=O)O)o2)cc1", "Potency": "inconclusive: 0.708 µM [inhibitor, full curve, poor fit]"}, {"smiles": "CC(C)(C)c1ccc(S(=O)(=O)N2CCN(c3nc(-c4ccccc4)nc4ccccc34)CC2)cc1", "activity, negative = inhibition": "inactive: 2.14%"}, {"smiles": "c1cc2c(cc1CN1CCOCC1)OCO2", "Potency": "inconclusive: 44.7 µM [inhibitor, partial curve, poor fit]"}, {"smiles": "Cc1cccc(Nc2nc(OCC#N)nc(N(C)C)n2)c1", "Potency": "inconclusive: 100 µM [inhibitor, partial curve, poor fit]"}, {"smiles": "S=C(NCCN1CCOCC1)N/N=C/c1cccs1", "activity, negative = inhibition": "inactive: -8.46%"}, {"smiles": "CC(C)(C)n1ncc2c(=O)n(Cc3ccc(Cl)c(F)c3)cnc21", "activity, negative = inhibition": "inactive: -11.6%"}, {"smiles": "CCOc1ccc2nc(SCC(=O)Nc3ccc(S(=O)(=O)N4CCCC4)cc3)c(C)cc2c1", "Potency": "inconclusive: 20 µM [inhibitor, partial curve, poor fit]"}, {"smiles": "C=C(C)C(=O)Nc1cccc(C2=NOC3(C2)C[C@@H](C(N)=O)N(C(=O)C(=C)C)C3)c1", "note": "(some centres undefined)", "Potency": "active: 50.1 µM"}, {"smiles": "COc1cc(/C=C2\\COC/C(=C\\c3ccc(O)c(OC)c3)C2=O)ccc1O", "Potency": "inconclusive: 20 µM [inhibitor, full curve, poor fit]"}, {"smiles": "Cc1ccc(-c2c(C#N)c(N)n(-c3ccc(C)cc3)c(=O)c2C#N)cc1", "Potency": "inconclusive: 112 µM [inhibitor, partial curve, poor fit]"}, {"smiles": "COc1ccc(C2=NN(S(C)(=O)=O)C(c3cn(-c4ccccc4)nc3-c3cccs3)C2)cc1", "note": "(centres undefined)", "Potency": "inconclusive: 70.8 µM [inhibitor, partial curve]"}, {"smiles": "CCCCn1c(SCC(=O)c2ccccc2)nc2ccsc2c1=O", "activity, negative = inhibition": "inactive: 165%"}, {"smiles": "Cc1ccc(S(=O)(=O)N(CC(O)Cn2c3ccccc3c3ccccc32)c2cccc(C(=O)N(C)C)c2)cc1", "note": "(centres undefined)", "Potency": "active: 89.1 µM"}, {"smiles": "COc1cccc(Nc2nn3c(=O)c4ccccc4nc3s2)c1", "activity, negative = inhibition": "inactive: -17.9%"}, {"smiles": "CC1CC=CC2C1C(=O)N(Cc1ccccc1)C2c1ccoc1", "note": "(centres undefined)", "Potency": "inconclusive: 10 µM [inhibitor, full curve, poor fit]"}, {"smiles": "Oc1ccc(C[C@@H]2CNC(=S)N2CCc2cc(C(F)(F)F)cc(C(F)(F)F)c2)cc1", "activity, negative = inhibition": "inactive: 21.7%"}, {"smiles": "COc1ccc(OCC(=O)Nc2nnc(-c3ccco3)s2)cc1", "Potency": "inconclusive: 15.8 µM [inhibitor, full curve, poor fit]"}, {"smiles": "Cc1cc(C(F)F)n2nc(C(=O)O)nc2n1", "Potency": "inconclusive: 3.55 µM [inhibitor, partial curve, poor fit]"}, {"smiles": "COC(=O)c1nnn(CC(=O)Nc2cc(F)ccc2F)c1C(=O)OC", "activity, negative = inhibition": "inactive: 1.63%"}, {"smiles": "CC(C)(C)n1cnnc1Sc1ncccc1[N+](=O)[O-]", "activity, negative = inhibition": "inactive: -5.41%"}, {"smiles": "CCN(CC)CCCNC(=O)c1ccc2c(c1)N(Cc1c(F)cccc1Cl)C(=O)c1ccccc1S2", "activity, negative = inhibition": "inactive: 18.3%"}, {"smiles": "Cc1c(-c2nsc(NC(=O)c3cccs3)n2)nnn1-c1ccc(Cl)cc1", "Potency": "inconclusive: 89.1 µM [inhibitor, single point]"}, {"smiles": "CCCc1[nH]nc2c1C(c1ccc(OC(=O)c3ccco3)cc1)C(C#N)=C(N)O2", "note": "(centres undefined)", "Potency": "inconclusive: 14.1 µM [inhibitor, partial curve, poor fit]"}, {"smiles": "Cc1cc(C=O)c(C)c2c1[nH]c1ccccc12", "Potency": "inconclusive: 89.1 µM [inhibitor, single point]"}, {"smiles": "COc1cccc(/C=C2/CN(C)CC3=C2OC(N)=C(C#N)C3c2cccc(OC)c2)c1", "note": "(centres undefined)", "activity, negative = inhibition": "inactive: -20.4%"}, {"smiles": "CCS(=O)(=O)C1=NSC2=NC(=O)/C(=C\\c3ccc(OS(=O)(=O)c4ccccc4)cc3)C(=N)N21", "Potency": "inconclusive: 25.1 µM [inhibitor, partial curve, poor fit]"}, {"smiles": "Cc1cc(C)n(C(=O)CNC(=O)COc2ccccc2)n1", "Potency": "inconclusive: 89.1 µM [inhibitor, single point]"}, {"smiles": "O=C(Nc1ccc(F)cc1)C1CCN(c2nc3ccccc3n3cccc23)CC1", "activity, negative = inhibition": "inactive: 26.8%"}, {"smiles": "O=C(NC1(C(F)(F)F)NC(=O)N(CCc2ccccc2)C1=O)c1ccccc1Cl", "note": "(centres undefined)", "activity, negative = inhibition": "inactive: -16.7%"}, {"smiles": "O=C1NC(=S)S/C1=C/c1ccc(N2CCOCC2)o1", "Potency": "active: 79.4 µM"}, {"smiles": "c1ccc2c(c1)NC1(CCCCCC1)n1c-2nc2ccccc21", "Potency": "inconclusive: 112 µM [inhibitor, single point]"}, {"smiles": "CCN1CCSc2ccc(C(=O)NCc3cccc(F)c3)cc21", "Potency": "inconclusive: 89.1 µM [inhibitor, partial curve, poor fit]"}, {"smiles": "Cc1ccc(/C(O)=C/C(=O)C(=O)NNC(=O)C(O)(c2ccccc2)c2ccccc2)cc1", "Potency": "inconclusive: 22.4 µM [inhibitor, full curve, poor fit]"}, {"smiles": "Cc1cccc(C(=O)OCC(=O)Nc2ccccc2C(=O)NC2CC2)c1", "Potency": "inconclusive: 20 µM [inhibitor, partial curve, poor fit]"}, {"smiles": "Cc1ccc(S(=O)(=O)CCC(=O)OCC(=O)NCc2ccc(Cl)cc2)cc1", "activity, negative = inhibition": "inactive: 37.2%"}, {"smiles": "Cn1c(CNC(=O)CSc2n[nH]c(-c3ccccc3)n2)nc2ccccc21", "activity, negative = inhibition": "inactive: -0.68%"}, {"smiles": "COc1ccc(CNc2ncnc3c2[nH]c2ccccc23)cc1", "Potency": "inconclusive: 89.1 µM [inhibitor, partial curve]"}, {"smiles": "O=c1c2oc3nc4c(cc3c2ncn1CCCc1ccccc1)CCCC4", "activity, negative = inhibition": "inactive: -20.6% [at 58.9 µM]"}, {"smiles": "CCOc1ccc(Nc2nc(Cc3nnc(SCC(N)=O)o3)cs2)cc1", "Potency": "inconclusive: 8.91 µM [inhibitor, full curve]"}, {"smiles": "C=C1CCN(C(C(=O)O)C(C)C)S(=O)(=O)c2ccccc21", "note": "(centres undefined)", "Potency": "inconclusive: 100 µM [inhibitor, partial curve, poor fit]"}, {"smiles": "O=C1C2CC=C(Cl)CC2C(=O)N1CCCCCCN1C(=O)C2CC=C(Cl)CC2C1=O", "note": "(centres undefined)", "Potency": "active: 17.8 µM"}, {"smiles": "COc1ccc2cc3c(N)nn(C(=O)c4ccc(F)cc4)c3nc2c1", "Potency": "inconclusive: 44.7 µM [inhibitor, full curve, poor fit]"}, {"smiles": "Cn1nnnc1SCc1cc(=O)n2ccsc2n1", "activity, negative = inhibition": "inactive: 29.2%"}, {"smiles": "COc1cccc2c(SCC(=O)N/N=C/c3ccc(O)c(O)c3)cc(C)nc12", "Potency": "active: 11.2 µM"}]}]}
